This list holds what a sample rich in targets with a hit left over. The data scatter; read single values as rough. The list shows a part of the results, in another mix than the full data.

Chains of the proteins cited; added tags and fusions are not shown. Lines headed by an entry give the natural chain unless they say otherwise; changes in a name come on top.
UniProt O15067: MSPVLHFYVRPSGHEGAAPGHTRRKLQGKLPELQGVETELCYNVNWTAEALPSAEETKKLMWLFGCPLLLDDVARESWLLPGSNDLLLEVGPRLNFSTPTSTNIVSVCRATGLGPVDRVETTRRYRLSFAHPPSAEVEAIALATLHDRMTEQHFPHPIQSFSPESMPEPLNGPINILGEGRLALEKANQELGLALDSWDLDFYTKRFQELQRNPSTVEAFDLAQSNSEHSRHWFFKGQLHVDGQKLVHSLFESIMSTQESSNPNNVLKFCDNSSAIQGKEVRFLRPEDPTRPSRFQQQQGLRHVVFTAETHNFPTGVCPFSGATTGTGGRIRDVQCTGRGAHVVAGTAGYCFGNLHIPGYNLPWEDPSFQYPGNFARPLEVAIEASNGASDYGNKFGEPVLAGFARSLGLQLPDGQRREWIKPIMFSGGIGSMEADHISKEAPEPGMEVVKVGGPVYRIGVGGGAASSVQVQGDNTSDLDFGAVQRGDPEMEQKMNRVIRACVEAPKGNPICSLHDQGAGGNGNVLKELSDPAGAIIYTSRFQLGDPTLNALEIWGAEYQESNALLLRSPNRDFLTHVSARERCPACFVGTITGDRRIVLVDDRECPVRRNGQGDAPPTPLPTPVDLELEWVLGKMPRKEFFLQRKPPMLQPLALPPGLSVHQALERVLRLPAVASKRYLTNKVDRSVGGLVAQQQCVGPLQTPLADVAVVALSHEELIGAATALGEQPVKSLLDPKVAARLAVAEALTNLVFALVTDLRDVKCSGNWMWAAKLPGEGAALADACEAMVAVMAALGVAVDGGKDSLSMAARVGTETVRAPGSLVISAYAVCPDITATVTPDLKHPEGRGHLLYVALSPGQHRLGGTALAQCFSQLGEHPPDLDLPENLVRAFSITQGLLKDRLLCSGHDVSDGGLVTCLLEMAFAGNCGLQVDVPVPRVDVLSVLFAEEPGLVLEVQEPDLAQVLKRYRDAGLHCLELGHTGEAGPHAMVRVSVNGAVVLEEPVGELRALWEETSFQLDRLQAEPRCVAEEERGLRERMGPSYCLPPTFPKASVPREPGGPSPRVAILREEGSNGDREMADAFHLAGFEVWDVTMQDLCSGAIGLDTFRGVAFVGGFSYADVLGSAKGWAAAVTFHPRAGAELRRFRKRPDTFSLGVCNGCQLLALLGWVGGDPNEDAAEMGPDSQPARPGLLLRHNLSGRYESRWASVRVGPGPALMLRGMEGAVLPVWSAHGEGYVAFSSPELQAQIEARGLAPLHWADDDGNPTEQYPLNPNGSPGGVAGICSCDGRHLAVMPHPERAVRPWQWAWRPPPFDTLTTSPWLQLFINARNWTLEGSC
UniProt O15446, whole entry, looked up: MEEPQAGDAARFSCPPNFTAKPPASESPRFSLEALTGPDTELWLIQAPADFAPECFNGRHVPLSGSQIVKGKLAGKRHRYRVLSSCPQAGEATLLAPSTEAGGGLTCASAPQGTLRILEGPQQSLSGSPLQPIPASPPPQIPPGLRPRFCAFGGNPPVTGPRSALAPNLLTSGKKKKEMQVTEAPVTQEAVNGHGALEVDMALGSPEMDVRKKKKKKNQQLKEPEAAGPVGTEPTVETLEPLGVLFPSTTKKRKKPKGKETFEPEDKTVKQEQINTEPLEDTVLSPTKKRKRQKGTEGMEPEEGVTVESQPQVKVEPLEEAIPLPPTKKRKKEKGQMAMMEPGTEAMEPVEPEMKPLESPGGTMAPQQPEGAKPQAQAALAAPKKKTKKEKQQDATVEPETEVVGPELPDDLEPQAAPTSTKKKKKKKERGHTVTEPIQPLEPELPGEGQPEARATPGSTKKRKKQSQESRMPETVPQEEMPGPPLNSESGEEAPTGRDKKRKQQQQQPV
UniProt O15357: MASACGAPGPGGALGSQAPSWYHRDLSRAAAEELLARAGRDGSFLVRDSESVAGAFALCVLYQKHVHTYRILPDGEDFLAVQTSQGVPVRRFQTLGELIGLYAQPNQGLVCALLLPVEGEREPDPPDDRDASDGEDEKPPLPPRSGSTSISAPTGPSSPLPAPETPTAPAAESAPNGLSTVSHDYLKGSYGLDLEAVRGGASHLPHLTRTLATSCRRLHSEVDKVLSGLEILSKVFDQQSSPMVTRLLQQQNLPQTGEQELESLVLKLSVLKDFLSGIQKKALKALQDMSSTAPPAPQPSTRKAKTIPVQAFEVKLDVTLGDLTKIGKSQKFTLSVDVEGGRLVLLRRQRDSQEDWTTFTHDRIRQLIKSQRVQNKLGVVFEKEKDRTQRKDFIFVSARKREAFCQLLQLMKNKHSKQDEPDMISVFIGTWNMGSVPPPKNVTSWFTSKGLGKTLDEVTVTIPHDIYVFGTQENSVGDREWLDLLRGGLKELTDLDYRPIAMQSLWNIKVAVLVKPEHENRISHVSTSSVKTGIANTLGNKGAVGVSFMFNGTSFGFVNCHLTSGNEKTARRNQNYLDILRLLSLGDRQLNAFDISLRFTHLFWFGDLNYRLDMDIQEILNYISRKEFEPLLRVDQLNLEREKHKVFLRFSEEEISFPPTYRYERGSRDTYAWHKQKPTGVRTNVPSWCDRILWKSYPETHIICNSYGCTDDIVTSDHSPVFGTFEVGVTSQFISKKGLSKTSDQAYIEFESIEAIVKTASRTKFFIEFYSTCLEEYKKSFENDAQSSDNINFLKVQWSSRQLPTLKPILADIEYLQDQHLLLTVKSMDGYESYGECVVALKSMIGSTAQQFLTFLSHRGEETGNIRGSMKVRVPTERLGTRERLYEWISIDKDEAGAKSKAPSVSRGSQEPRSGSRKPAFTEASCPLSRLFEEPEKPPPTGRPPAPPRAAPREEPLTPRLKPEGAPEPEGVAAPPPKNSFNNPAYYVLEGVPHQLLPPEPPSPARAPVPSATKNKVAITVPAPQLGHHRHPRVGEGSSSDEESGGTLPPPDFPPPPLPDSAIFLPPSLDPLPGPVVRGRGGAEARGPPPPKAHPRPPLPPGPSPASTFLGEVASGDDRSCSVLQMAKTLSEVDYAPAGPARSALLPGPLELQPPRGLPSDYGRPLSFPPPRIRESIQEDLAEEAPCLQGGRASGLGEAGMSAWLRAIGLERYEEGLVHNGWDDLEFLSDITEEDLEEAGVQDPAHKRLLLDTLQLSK
UniProt O14617: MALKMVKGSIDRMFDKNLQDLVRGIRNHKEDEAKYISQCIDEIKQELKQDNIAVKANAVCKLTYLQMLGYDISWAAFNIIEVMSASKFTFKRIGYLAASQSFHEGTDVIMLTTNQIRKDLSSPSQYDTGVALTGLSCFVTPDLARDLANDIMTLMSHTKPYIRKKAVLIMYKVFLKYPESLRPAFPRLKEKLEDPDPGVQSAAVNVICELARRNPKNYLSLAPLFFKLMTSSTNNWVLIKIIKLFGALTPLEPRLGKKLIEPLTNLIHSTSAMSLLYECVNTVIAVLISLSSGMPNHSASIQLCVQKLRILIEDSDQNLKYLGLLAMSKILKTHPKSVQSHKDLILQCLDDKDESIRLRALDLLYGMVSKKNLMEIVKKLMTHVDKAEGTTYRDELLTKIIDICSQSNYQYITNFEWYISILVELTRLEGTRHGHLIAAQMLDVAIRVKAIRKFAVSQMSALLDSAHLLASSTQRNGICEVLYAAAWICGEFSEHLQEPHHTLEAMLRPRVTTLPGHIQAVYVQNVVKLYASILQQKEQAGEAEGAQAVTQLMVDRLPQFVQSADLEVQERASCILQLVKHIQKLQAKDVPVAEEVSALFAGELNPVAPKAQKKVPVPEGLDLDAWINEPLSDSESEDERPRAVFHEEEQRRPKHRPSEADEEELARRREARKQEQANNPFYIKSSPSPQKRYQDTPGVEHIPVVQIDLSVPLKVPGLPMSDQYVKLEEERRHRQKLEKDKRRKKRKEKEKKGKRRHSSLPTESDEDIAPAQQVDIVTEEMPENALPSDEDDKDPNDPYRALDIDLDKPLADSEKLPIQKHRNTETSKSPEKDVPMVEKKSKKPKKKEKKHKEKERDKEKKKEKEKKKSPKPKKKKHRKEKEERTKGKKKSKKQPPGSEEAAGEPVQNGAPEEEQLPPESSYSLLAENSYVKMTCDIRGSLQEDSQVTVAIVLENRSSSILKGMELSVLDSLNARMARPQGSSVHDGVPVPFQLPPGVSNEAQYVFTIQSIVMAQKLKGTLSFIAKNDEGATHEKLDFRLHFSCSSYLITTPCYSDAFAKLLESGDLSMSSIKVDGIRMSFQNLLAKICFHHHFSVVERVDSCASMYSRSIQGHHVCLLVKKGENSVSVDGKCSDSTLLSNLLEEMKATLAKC
UniProt O00148, whole entry, looked up: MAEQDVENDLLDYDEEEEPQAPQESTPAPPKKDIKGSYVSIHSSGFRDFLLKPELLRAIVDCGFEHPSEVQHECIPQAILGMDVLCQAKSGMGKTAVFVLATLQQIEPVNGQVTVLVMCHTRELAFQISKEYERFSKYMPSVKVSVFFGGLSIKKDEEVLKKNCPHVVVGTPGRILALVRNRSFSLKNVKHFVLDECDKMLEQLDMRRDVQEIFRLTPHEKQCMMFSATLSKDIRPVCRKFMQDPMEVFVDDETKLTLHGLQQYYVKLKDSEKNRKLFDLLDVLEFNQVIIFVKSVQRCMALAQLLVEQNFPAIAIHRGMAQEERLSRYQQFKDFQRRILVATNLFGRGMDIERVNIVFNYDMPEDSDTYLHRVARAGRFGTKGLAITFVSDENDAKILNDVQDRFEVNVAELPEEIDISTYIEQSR
UniProt O14545: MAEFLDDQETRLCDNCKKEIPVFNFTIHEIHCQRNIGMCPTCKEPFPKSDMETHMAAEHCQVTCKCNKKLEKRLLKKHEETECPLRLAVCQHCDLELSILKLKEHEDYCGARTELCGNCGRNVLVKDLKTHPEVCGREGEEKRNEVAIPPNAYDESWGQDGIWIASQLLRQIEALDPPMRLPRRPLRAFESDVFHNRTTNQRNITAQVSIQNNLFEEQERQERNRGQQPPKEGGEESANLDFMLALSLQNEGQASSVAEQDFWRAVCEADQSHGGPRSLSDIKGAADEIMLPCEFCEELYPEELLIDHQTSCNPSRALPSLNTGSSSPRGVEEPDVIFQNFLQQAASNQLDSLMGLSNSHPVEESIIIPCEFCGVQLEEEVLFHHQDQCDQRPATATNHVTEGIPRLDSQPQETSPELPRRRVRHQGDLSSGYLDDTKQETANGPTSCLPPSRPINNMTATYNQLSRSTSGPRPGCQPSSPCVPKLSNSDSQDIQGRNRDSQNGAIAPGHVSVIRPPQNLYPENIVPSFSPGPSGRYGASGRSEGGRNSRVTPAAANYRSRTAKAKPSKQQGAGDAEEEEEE
UniProt O00483, whole entry: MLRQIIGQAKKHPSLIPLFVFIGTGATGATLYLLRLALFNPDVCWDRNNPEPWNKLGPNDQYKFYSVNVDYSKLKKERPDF
UniProt O43148, whole entry, looked up: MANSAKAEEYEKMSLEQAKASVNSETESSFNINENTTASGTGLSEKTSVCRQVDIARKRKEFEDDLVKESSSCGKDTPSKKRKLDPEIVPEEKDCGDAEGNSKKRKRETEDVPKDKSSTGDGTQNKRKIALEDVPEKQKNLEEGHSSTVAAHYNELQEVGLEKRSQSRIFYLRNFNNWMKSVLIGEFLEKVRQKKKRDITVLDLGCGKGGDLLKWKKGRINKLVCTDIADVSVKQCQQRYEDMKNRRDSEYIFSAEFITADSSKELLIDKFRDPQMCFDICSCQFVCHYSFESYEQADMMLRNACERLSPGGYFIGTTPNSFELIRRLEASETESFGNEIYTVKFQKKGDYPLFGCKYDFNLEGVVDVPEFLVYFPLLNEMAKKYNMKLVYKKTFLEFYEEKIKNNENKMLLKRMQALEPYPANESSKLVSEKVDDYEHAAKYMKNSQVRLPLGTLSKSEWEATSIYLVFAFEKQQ
UniProt O15371, whole entry, looked up: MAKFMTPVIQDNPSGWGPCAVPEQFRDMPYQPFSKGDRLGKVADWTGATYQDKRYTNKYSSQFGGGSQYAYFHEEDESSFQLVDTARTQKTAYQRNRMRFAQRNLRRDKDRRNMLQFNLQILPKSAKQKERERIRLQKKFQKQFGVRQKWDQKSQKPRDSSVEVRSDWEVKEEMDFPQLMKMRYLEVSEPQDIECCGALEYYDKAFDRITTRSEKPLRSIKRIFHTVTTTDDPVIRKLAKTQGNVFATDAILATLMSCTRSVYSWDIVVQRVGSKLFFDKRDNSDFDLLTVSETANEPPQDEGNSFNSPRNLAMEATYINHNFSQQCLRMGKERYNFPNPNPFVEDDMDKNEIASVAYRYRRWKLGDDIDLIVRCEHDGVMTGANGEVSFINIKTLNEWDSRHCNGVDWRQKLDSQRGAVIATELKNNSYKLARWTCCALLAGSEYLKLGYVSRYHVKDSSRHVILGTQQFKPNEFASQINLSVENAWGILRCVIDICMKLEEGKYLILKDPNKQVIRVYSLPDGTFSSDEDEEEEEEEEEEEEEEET

Compound in this assay: COC(=O)/C=C/c1ccccc1 [methyl cinnamate]
The assay can be described thus: log2 ratio of iodoacetamide-alkyne labeling of the cysteine site, DMSO over compound (competition); higher = stronger covalent engagement of the cysteine by the compound, active = 1 or more. The following applies: 500 µM; treatment time 1 h; system: HEK293T cell lysate. The procedure, abridged: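 For each cysteine, the log2 competition ratio is mean control-channel reporter intensity over mean compound-channel reporter intensity. HEK293T lysate (2 mg/mL) was exposed to vehicle or electrophile (500 µM, 1 h, ambient temperature), labelled with iodoacetamide alkyne (1 h), clicked to sCIP-TMT reagents, digested overnight with trypsin at 37 °C, streptavidin-enriched and analysed by Orbitrap Eclipse LC-MS/MS with FAIMS and FragPipe. Cysteines quantified in only one of three replicates, each with duplicate channels, were excluded.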
Turning to PFAS C502 (UniProt O15067), the “log2 ratio of iodoacetamide-alkyne labeling” value (from here on “log2 ratio”) was inactive: 0.168. With KMT2D C5314 (UniProt O14686), the “log2 ratio” value was inactive: 0.289. Under CD3EAP C55 (UniProt O15446) stands inactive: 0.933. Under DDX3X C223 (UniProt O00571) stands inactive: 0.148.

With INPPL1 C1187 (UniProt O15357), the “log2 ratio” value is inactive: 0.249. The value for AP3D1 C348 (UniProt O14617) was inactive: 0.215; that for UniProt O00148_C86 was inactive: -0.404; that for PES1 C272 (UniProt O00541) was inactive: 0.277.

On to POLR3A C883 (UniProt O14802), for which the “log2 ratio” value was inactive: 0.222.

Consider TRAFD1 C476 (UniProt O14545), for which the “log2 ratio” value is inactive: 0.66.

Take NDUFA4 C44 (UniProt O00483): the “log2 ratio” value was inactive: 0.142.

As to RNMT C73 (UniProt O43148), the “log2 ratio” value is inactive: 0.446.

Turning to IPO5 C110 (UniProt O00410), the “log2 ratio” value was inactive: 0.394. Turning to AP3D1 C208 (UniProt O14617), the “log2 ratio” value was inactive: -0.0511. For EIF3D C196 (UniProt O15371), the “log2 ratio” value is inactive: 0.0311. The value for XPO1 C164 (UniProt O14980) was inactive: -0.04; that for UniProt O14979_C303 was inactive: 0.0198; that for TRAFD1 C267 (UniProt O14545) was inactive: 0.255. For DDX3X C341 (UniProt O00571), the “log2 ratio” value is inactive: 0.2. Under PFAS C606 (UniProt O15067) stands inactive: 0.278; under EIF3CL C79 (UniProt B5ME19), inactive: 0.36; under IRS4 C206 (UniProt O14654), inactive: 0.141.

The values above are taken from the supplement of paper PMC11006884.
